According to patent US7919584B1, “Methods and compositions for diagnosis and treatment of asthma” (Arbor Vita Corporation, priority 2005, dated 2011):
No constants are given. Whether binding was seen depends on the method and setting. Some entries that bind do so weakly or less than the wild type. For part of these data: Tags and fused reporters may be left off the sequences shown.

By UniProt entry, the sequences of proteins in these tests, tags left out. Residues count along the entry.
UniProt Q8TCU6, residues 612-713: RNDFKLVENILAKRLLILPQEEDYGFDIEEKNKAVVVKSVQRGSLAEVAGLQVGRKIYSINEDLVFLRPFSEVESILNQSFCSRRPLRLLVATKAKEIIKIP

Tests used:
Test in all cases: modified G assay: GST-PDZ captured on anti-GST plate, biotinylated peptide pre-mixed with HRP-streptavidin; listed if OD450 at least 0.5 and signal to noise at least 1.5
[1] = molecular target: GST-KIAA0313 PDZ domain fusion protein (human) [GST: P08515]
[2] = molecular target: GST-KIAA1284 PDZ domain fusion protein (human) [GST: P08515]
[3] = molecular target: T1, GST-MUPP1 (PDZ #10) fusion protein (human) (UniProt O75970)
T1 sequence (looked up): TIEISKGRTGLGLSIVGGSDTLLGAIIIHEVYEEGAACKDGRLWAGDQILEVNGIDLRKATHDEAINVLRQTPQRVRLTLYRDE

[4] = molecular target: T2, GST-NeDLG (PDZ #3) fusion protein (human) (UniProt Q92796)
T2 sequence (looked up): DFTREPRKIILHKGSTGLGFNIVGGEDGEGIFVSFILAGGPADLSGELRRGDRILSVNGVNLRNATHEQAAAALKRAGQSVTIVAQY

[5] = molecular target: GST-KIAA1415 PDZ domain fusion protein (human) (UniProt Q8TCU6)
[6] = molecular target: GST-GORASP1 (PDZ #1) fusion protein (human) [GST: P08515]

Measured: binding

YGRKKRRQRRRIGELQLSIA (biotin at the amino-terminus)
binds: all assays above
